From PubChem BioAssay AID687031 (Broad Institute, 2013)
Out of some 1,400 compounds screened, about 50 (4%) were called active.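 How the source made its calls: active means fitted curve reaches 30% CPE protection at or below the top valid dose, with every test run called active; inconclusive means test runs disagree, some active and some not; inactive means every test run inactive, including effects in the wrong direction.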 The list shows a part of the results. Entries with a potency or affinity are not part of this list.

Test: Dengue virus 2 cytopathic effect protection, dose response, BHK-21 cells, ATP luminescence, cherry-pick (AID 687031);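 further: 0% = infected DMSO wells and 100% = uninfected cell wells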
Conditions: BHK-21 DENV2 CPE protection, 5 d; at 19.5 µM (top of the series) unless noted

CPE protection (higher = active), inactive:
CCCC1CC(CCc2ccccc2)OS(=O)(=O)N1 (stereo not given) 10.6%
CCOC(=O)C1(C)CCN1C(=O)c1cccc(OC)c1 (stereo not given) -2.42%
CS(=O)(=O)NCc1ccc(C(=O)NCCOc2ccccc2)cc1 -5.24%
Cc1noc(C)c1NC(=O)Nc1ccc2c(c1)CC(=O)N([C@@H](C)CO)C[C@H](C)[C@@H](CN(C)C(=O)Nc1ccccc1)O2 4.8%
C[C@H]1[C@H](c2ccccc2)C[C@@H](C(=O)O)C1(C)C -2.52%
CN(C)CCCN1c2ccccc2Sc2ccc3ccccc3c21 6.88% [at 10 µM]
CS(=O)(=O)N1[C@@H]2c3ccc(-c4ccc(F)cc4)c(=O)n3C[C@H]1[C@H](CO)[C@H]2C(=O)NCC1CC1 -2.6%
CCCCCC(=O)N1C[C@@H](O)[C@H](n2cc(COC(=O)c3ccccc3)nn2)C[C@@H]1c1ccc(C)cc1 -2.79%
CCCCCCN1CCN(C2CN(Cc3ccc(F)cc3)S(=O)(=O)C2)CC1 (stereo not given) -15.2%
CNC(=O)C[C@@H]1CC[C@@H]2[C@H](COc3ccc(NC(=O)c4ccc(F)c(F)c4)cc3C(=O)N2C)O1 5.16%
COc1ccccc1CCNS(=O)(=O)CCNC(=O)c1ccc2c(c1)OCO2 -7.14%
Cc1ccc(Nc2nc(-c3sc(N)nc3C)cs2)cc1 2.24%
CC1(NC(=O)c2cc(Cl)nc3ccccc23)CCS(=O)(=O)C1 (stereo not given) 27.2%
CN1C(=O)c2cc(NC(=O)NC3CCCC3)ccc2OC[C@H]2O[C@@H](CC(=O)NCC3CC3)CC[C@@H]21 -8.11% [at 23.5 µM]
CCC1(c2ccccc2)NC(=O)N(CC(=O)Nc2ccccc2C(=O)N2CCCCC2)C1=O (stereo not given) 9.49%
C/C=C/c1ccc([C@H]2[C@@H](CO)N(C(=O)C3CCC3)[C@@H]2CNC(=O)NC(C)C)cc1 2.65%
COc1cc2cc(CCCOC(=O)CCCC(=O)O)oc(=O)c2cc1OC 24.9%
C[C@H](CO)N1C[C@H](C)[C@H](CN(C)C(=O)NC2CCCCC2)Oc2ccc(NC(=O)Cn3cnnn3)cc2C1=O -15.6%
Cc1cccc(C(=O)OCC(=O)NCc2ccc(Cl)cc2)c1 -0.771% [at 10 µM]
CC(C)(C(=O)N1CCC1(C)C(=O)NS(=O)(=O)c1cccc(Cl)c1)c1ccccc1 (stereo not given) -9.26%
CC1(C(=O)NCc2cccc(C(F)(F)F)c2)CCN1Cc1cc2ccccc2o1 (stereo not given) 5.83%
Cc1ccc(S(=O)(=O)N(c2nc(NC(C)C)nc(NC(C)C)n2)n2cnnc2)cc1 -12.8%
NNC(=O)c1ccc(-c2ccccc2F)cc1 21.4%
C[C@@H]1CCCCO[C@@H](CN(C)C(=O)Nc2ccc(C(F)(F)F)cc2)[C@H](C)CN([C@H](C)CO)C(=O)c2cc(NC(=O)Cc3ccccc3)ccc2O1 -1.75%
CN1c2ccc(Br)cc2[C@@H]2[C@@H](CCN2C(=O)C2CCCC2)[C@H]1CO 9.19%
CNC(=O)C[C@H]1CC[C@@H]2[C@H](COc3ccc(NC(=O)c4ccc(F)c(F)c4)cc3C(=O)N2C)O1 16.4% [at 21 µM]
O=C(CN1CCc2cc3c(cc2C1)OCCCO3)Nc1ccccc1 17.2%
O=C1N2CCCCC1(c1ccccc1)CCCC2 -8.51%
Cc1noc(C)c1S(=O)(=O)N(C)C[C@H]1OCCCC[C@H](C)Oc2ccc(NC(=O)NC(C)C)cc2C(=O)N([C@H](C)CO)C[C@@H]1C -0.808%
Clc1cc(Br)ccc1OCCCn1ccnc1 -13.3%
CN1c2ccc(Br)cc2[C@H]2[C@H](CCN2S(=O)(=O)c2cccc(F)c2)[C@H]1CO -9.67% [at 18 µM]
N#CCSc1ccccc1NC(=O)CN1C(=O)C(=O)N(Cc2ccccc2)C1=O -15.2%
Cn1cc(CC(=O)Nc2ccc(Nc3cccnc3)cc2)c2ccccc21 -10.5%
CC(=O)NCCC(=O)Nc1cc(S(=O)(=O)N2CCCCC2)ccc1N1CCN(C)CC1 -12%
C[C@@H]1CCCCO[C@@H](CN(C)CC2CCCCC2)[C@H](C)CN([C@H](C)CO)C(=O)c2cc(NC(=O)Nc3cccc4ccccc34)ccc2O1 -40.5%
O=C1[C@H](Cc2ccccc2)NCC=CC[C@H](c2ccc(Cl)cc2)N1Cc1ccccc1 -22.6%
CNC[C@H]1Oc2c(NS(=O)(=O)c3ccc(Cl)cc3)cccc2C(=O)N([C@@H](C)CO)C[C@@H]1C -2.5%
C[C@@H]1CN([C@@H](C)CO)C(=O)c2cc(NS(=O)(=O)c3ccc(F)cc3)ccc2O[C@@H](C)CCCCO[C@@H]1CN(C)C(=O)CCCN(C)C 13.4%
O=C1c2ccccc2C(=O)N1CC(=O)N1c2ccccc2Sc2ccc(C(F)(F)F)cc21 2.11%
C[C@H]1CN([C@@H](C)CO)C(=O)Cc2cc(NS(=O)(=O)c3cccs3)ccc2O[C@H]1CN(C)Cc1ccc2c(c1)OCO2 -4.98%
O=C(COC(=O)CNC(=O)c1ccc(Cl)cc1)Nc1ncc(C(F)(F)F)cc1Cl 9.18%
COc1ccc(S(=O)(=O)N2CCN(CC(=O)NC3CC3)CC2)cc1 -34%
OC(c1ccccc1)C(NCc1ccccc1)c1ccccc1 (stereo not given) -17.8%
COc1ccc(OC)c(CN2C(=O)CN(S(C)(=O)=O)CC2(C)C(=O)NCc2ccccc2)c1 (stereo not given) -25.8%
Cc1cccc(N(C(=O)Cn2nnc3ccccc32)C(C(=O)NC(C)(C)C)c2ccsc2)c1 (stereo not given) -6.52%
O=C(NNC(=O)c1ccccc1O)c1ccccc1O -25.7%
CN(C)c1ccc2c(c1)[C@H]1C[C@@H](CC(=O)NCc3ccc(Oc4ccccc4)cc3)O[C@H](CO)[C@H]1O2 -5.45%
O=C(O)CNC(=O)c1ccc(NS(=O)(=O)c2ccc3ccccc3c2)cc1 11.9%
Cc1ccc(NC(=O)CN2CCC(NC(=O)c3cccc(F)c3)CC2)cc1C 12.5%
CC(=O)Nc1cccc(C(=O)OCC(=O)Nc2ccc(Cl)cn2)c1 6.48%
COc1ccccc1CCN=C(N)NS(=O)(=O)c1ccc(F)cc1 4.03%
Cc1ccc(CN(C)c2ccc(S(=O)(=O)N3CCCC3)cn2)cc1 5.91%
C[C@@H]1CN([C@H](C)CO)C(=O)Cc2cc(NC(=O)Cn3cnnn3)ccc2O[C@@H]1CN(C)Cc1ccc(C(=O)Nc2ccccc2N)cc1 21.3% [at 18 µM]
Cc1ccccc1NC(=O)Cc1nc(COC(=O)C(C)(C)Oc2ccc(Cl)cc2)cs1 19.4%
O=C(NCc1cc(C(F)(F)F)cc(C(F)(F)F)c1)C1CC(c2cccc(F)c2)=NO1 (stereo not given) 1.22%
Cc1c(Cl)cccc1NC(=O)CC1Oc2ccccc2NC1=O (stereo not given) -12.8%
C#CCNC(=O)C[C@@H]1C[C@@]2(C(=O)OC)CCCCC=C2N(Cc2cccc3ccccc23)C1=O -8.6%
C/C=C/c1ccc([C@@H]2[C@@H](CO)N(C(C)=O)[C@@H]2CNC(=O)CC2CC2)cc1 4.22% [at 21 µM]
Cc1cccc(NC(=O)c2cccc(S(=O)(=O)N(C)C3CCCCC3)c2)n1 -10.4%
C[C@@H]1CN([C@H](C)CO)C(=O)Cc2cc(NC(=O)CCCCCC(=O)Nc3ccccc3N)ccc2O[C@@H]1CN(C)S(C)(=O)=O -8.4% [at 16 µM]
Cc1noc(C)c1NC(=O)Nc1ccc2c(c1)C(=O)N([C@@H](C)CO)C[C@@H](C)[C@@H](CN(C)C)OCCCC[C@@H](C)O2 -7.08%
Cc1ccc(S(=O)(=O)N(C)C[C@H]2Oc3ccc(NC(=O)Nc4ccc(F)cc4)cc3CC(=O)N([C@H](C)CO)C[C@@H]2C)cc1 -14% [at 21 µM]
CCN(CC(=O)Nc1cc(Cl)ccc1-n1cncn1)Cc1nc2ccccc2c(=O)[nH]1 1.83%
CC(C)(OC(=O)c1ccc(C#N)cc1)c1cc2ccccc2c(=O)o1 -16.1%
COCCNC(=O)C1(C)CCN(C(=O)Cc2ccc(OC)c(OC)c2)C1 (stereo not given) -24.1%
CCOC(=O)c1[nH]c(C)c(C(=O)OCC(=O)N2CC(=O)Nc3ccccc32)c1C 7.13% [at 10 µM]
CN1C(=O)c2cc(NC(=O)NCc3ccccc3)ccc2OC[C@H]2O[C@H](CC(=O)NCC3CCCCC3)CC[C@H]21 -5.84% [at 10 µM]
CC(C)(C)OC(=O)NCc1ccc(CNC(=O)c2nc[nH]c2C(=O)N2CCc3ccccc3C2)cc1 11.2%
COc1cc([C@H](Cc2ccccc2)NC(C)=O)oc(=O)c1 3.82%
CC(C)(C)NC(=O)c1cccc(NC(=O)c2ccc3c(c2)C(=O)N(C(C)(C)C)C3=O)c1 8.46%
NC(=O)c1cc(Cl)cn(-c2ccccc2)c1=O 13.1%
CN(Cc1ccc(Cl)c(Cl)c1)C(=O)C1CC(=O)N(c2ccc3c(c2)OCCO3)C1 (stereo not given) 22.4%
CCn1cc(C(=O)NC(C)CCc2ccccc2)c(=O)c2cc(S(=O)(=O)N(C)C)ccc21 (stereo not given) 3.85%
CC(C)Oc1ccc(S(=O)(=O)N2CCOCC2)cc1NC(=O)Cc1ccsc1 25.1%
CCCCOc1ccc(C(=O)N/N=C/c2ccc(OCCN3CCCCC3)c(OC)c2)cc1 -4.37%

Compounds from the list above that have a cyano group:
CPE protection (higher = active), inactive:
N#CCSc1ccccc1NC(=O)CN1C(=O)C(=O)N(Cc2ccccc2)C1=O -15.2%
CC(C)(OC(=O)c1ccc(C#N)cc1)c1cc2ccccc2c(=O)o1 -16.1%

Random excerpt: 3 compounds from above
CPE protection (higher = active), inactive:
CC(C)(C)NC(=O)c1cccc(NC(=O)c2ccc3c(c2)C(=O)N(C(C)(C)C)C3=O)c1 8.46%
O=C1[C@H](Cc2ccccc2)NCC=CC[C@H](c2ccc(Cl)cc2)N1Cc1ccccc1 -22.6%
CC(C)(C)OC(=O)NCc1ccc(CNC(=O)c2nc[nH]c2C(=O)N2CCc3ccccc3C2)cc1 11.2%
